# Assay results as given in PubChem BioAssay AID624297 (National Center for Advancing Translational Sciences (NCATS), 2012).
# Screen size: about 340,000 compounds; about 6,200 (1.8%) were called active. This list was built around the results that the source calls inconclusive (neither active nor inactive); the mix of calls is not that of the screen. Calls follow the shape of the dose curve; as a rule, active = well fitted activation curve with a large enough effect; inconclusive = small, poorly fitted or top-dose-only effect; inactive = no such curve, though single readings can be large or run the other way. Potencies of inconclusive entries are doubtful fits and often do not repeat.
# Experiment: A quantitative high throughput screen for small molecules that induce DNA re-replication in SW480 colon adenocarcinoma cells. Also: nearly all actives have a fitted effect of over 55% in size. As to re-replication activation: % of control where 0% means no effect.
# Conditions: Hoechst DNA content imaging, 48 h; re-replication activation: at 46.1 µM (top of the series) unless noted
# Outline: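 Cells (250 per well) received 23 nL compound or DMSO by pin tool and were kept 48 hr at 37 C, 5% CO2. Nuclei were then stained with Hoechst for 40 min and scanned for DNA content.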
# Potency is read from the fitted curve at half-maximal effect.
Structure (SMILES),Potency,re-replication activation
Cc1cc(SCC(=O)OC(C)C(=O)N(C)c2ccccc2)nc2ccccc12 (stereo not drawn),"inconclusive: 25.9 µM [activator, partial curve, poor fit]",–
O=C(Nc1ccc(C(=O)N2CCOCC2)cc1)c1cnn2c(C(F)F)cc(-c3ccccc3)nc12,–,inactive: -0.84%
O=C1C2CCCCN2C(=O)N1CCCCN1CCN(c2ccccc2Oc2ccccc2)CC1 (stereo not drawn),–,inconclusive: 96.4% [activator]
COc1cc(OC)c(OC)cc1CN1CCN(Cc2cccc(F)c2)CC1,–,inactive: -30.7%
CCn1c(=N)n(CC(O)COc2cccc(C)c2)c2ccccc21 (stereo not drawn),"inconclusive: 29.1 µM [activator, single point]",–
CC(=O)OCC(=O)[C@@]1(OC(C)=O)[C@@H](C)C[C@H]2[C@@H]3C[C@H](F)C4=CC(=O)C=C[C@]4(C)[C@@]3(F)[C@@H](O)C[C@@]21C,"inconclusive: 22.4 µM [activator, single point]",–
Cc1ccc(S(=O)(=O)Nc2ccc3c(c2)nc(CCN2CCCCC2)n3C)cc1,"inconclusive: 29.1 µM [activator, single point]",–
COCCNC(C(=O)Nc1ccc([N+](=O)[O-])cc1Br)c1ccccc1 (stereo not drawn),"inconclusive: 20.6 µM [activator, partial curve, poor fit]",–
CC(=O)C12OC1CC1C3CCC4=CC(=O)CCC4(C)C3CCC12C (stereo not drawn),–,inactive: -3.59%
Cc1c2ccccc2c(C)c2c1ccc1ccccc12,active: 1.84 µM,–
CCC(=O)NCc1csc(-c2cccs2)n1,"inconclusive: 16.4 µM [activator, single point]",–
CC(=O)Cc1nsc(NC(=O)c2cn(-c3ccccc3)nc2-c2ccc(Br)cc2)n1,–,inactive: -15.9%
c1ccc(-c2cc(-c3nn4c(-c5ccco5)nnc4s3)c3ccccc3n2)cc1,"inconclusive: 1.26 µM [activator, full curve, poor fit]",–
CCOc1ccc(N(CC(=O)NCc2ccc(F)cc2)S(=O)(=O)c2c(C)noc2C)cc1,"inconclusive: 29.1 µM [activator, partial curve, poor fit]",–
CN(C)/C=C/C1=CC(=O)CC(C)(C)C1,"inconclusive: 16.4 µM [activator, single point]",–
Cc1ccc(NC(=O)CC2SC(=Nc3ccc(O)cc3)NC2=O)cc1 (stereo not drawn),"inconclusive: 29.1 µM [activator, single point]",–
COc1ccc(CNCC(O)(c2ccccc2)c2ccc(F)cc2)cc1OC (stereo not drawn),"inconclusive: 6.51 µM [activator, full curve, poor fit]",–
COC(=O)C1=C(C)NC(=O)/C1=C\c1cc(C)n(-c2cc(C)cc(C)c2)c1C,–,inactive: 12.6%
Cc1ccc(F)c(NC(=O)/C(C#N)=C(\O)c2ccc(C(C)(C)C)cc2)c1,"inconclusive: 9.2 µM [activator, partial curve, poor fit]",–
CC(=O)c1ccc(N2CCN(C(=S)NCCCN(C)C)CC2)cc1,"inconclusive: 3.16 µM [activator, single point]",–
Cc1ccc2nc(-c3ccc(NC(=S)NCC(C)(C)CN(C)C)cc3)sc2c1,"inconclusive: 18.4 µM [activator, single point]",–
N=c1n(Cc2ccccc2)c2ccccc2n1CC(O)COc1ccc(Cl)cc1Cl (stereo not drawn),"inconclusive: 14.6 µM [activator, partial curve]",–
COc1ccccc1-c1nnc(SCc2nc3ccccc3[nH]2)n1C,"inconclusive: 23.1 µM [activator, single point]",–

# Among those listed so far, these contain two or more sulfur atoms.
Structure (SMILES),Potency,re-replication activation
CCC(=O)NCc1csc(-c2cccs2)n1,"inconclusive: 16.4 µM [activator, single point]",–
Cc1ccc2nc(-c3ccc(NC(=S)NCC(C)(C)CN(C)C)cc3)sc2c1,"inconclusive: 18.4 µM [activator, single point]",–

# (list continues)

Structure (SMILES),Potency,re-replication activation
CCOC(=O)c1ccc(N=Nc2c(C)c(C#N)c(O)[nH]c2=O)cc1,–,inactive: -3.63%
O=C(NC[C@@H]1CCCO1)c1cccc2c1C(=O)c1ccc(Cl)cc1S2(=O)=O,–,inactive: -4.57%
Cc1ccc2c(c1)cc1c(=O)n(CC(=O)NCCCc3ccccc3)nc(C)n12,"inconclusive: 6.51 µM [activator, single point]",–
CCCC1=[N+](CC(C)=O)CCn2c(C)ccc21,"inconclusive: 0.082 µM [activator, full curve, poor fit]",–
COc1ccc(C2=NN(C(=O)c3ccccc3)C(c3ccccc3)C2)c(O)c1 (stereo not drawn),"inconclusive: 5.17 µM [activator, partial curve]",–
Cc1ccc(C(=O)N/N=C\C=C\c2ccc(Br)cc2)cn1,"inconclusive: 0.517 µM [activator, full curve, poor fit]",–
COCCNCCCCOc1ccc(C)cc1[N+](=O)[O-],–,inactive: 0.947%
CC(C)c1ccccc1NC(=S)NCc1ccccc1F,–,inactive: -7%
COc1ccc(C)cc1NC(=O)C(NCC1CCCO1)c1ccccc1 (stereo not drawn),–,inactive: 28.4%
CC1CC(C)CN(C(=O)CNS(=O)(=O)c2ccc(Br)s2)C1 (stereo not drawn),–,inactive: 18.6%
COc1ccc(C(C)=O)cc1COC(=O)c1cnc(Cl)c(Cl)c1,"inconclusive: 20.6 µM [activator, single point]",–
CC1(C)Oc2ccc3ccc(=O)oc3c2CC1O (stereo not drawn),"inconclusive: 2.31 µM [activator, full curve, poor fit]",–
COc1ccc2[nH]c(=O)c(CN(Cc3ccco3)C(=O)c3ccccc3)cc2c1,"inconclusive: 20.6 µM [activator, single point]",–
COc1ccc(-n2nnnc2CNC(=O)C2CC(=O)N(c3ccc(Cl)cc3)C2)cc1 (stereo not drawn),"inconclusive: 5.8 µM [activator, partial curve, poor fit]",–
CN(c1ccccc1)c1nc(N)c([N+](=O)[O-])c(NCc2ccco2)n1,"inconclusive: 6.51 µM [activator, single point]",–
Cc1noc(C)c1C(=O)N1CCCC(C(=O)c2ccc(Cl)cc2)C1 (stereo not drawn),"inconclusive: 29.1 µM [activator, single point]",–
Cc1c(C)n(CCCN(C)C)c2ncnc(NC3CCCCC3)c12,"inconclusive: 29.1 µM [activator, single point]",–
CCOc1ccc(C(=O)NNC(=O)CN2C(=O)C3CC=CCC3C2=O)cc1OC (stereo not drawn),–,inactive: -5.94%
CC1CCCCN1C(=S)NC(=O)c1ccccc1 (stereo not drawn),–,inactive: 4.28%
CCN(CC)CCCCNc1ncc2cc(-c3cc(OC)cc(OC)c3)c(NC(=O)NC(C)(C)C)nc2n1,"inconclusive: 1.58 µM [activator, partial curve, poor fit]",–
CCCc1c(C)[nH]c2ccc(NC(C)=O)cc2c1=O,"inconclusive: 29.1 µM [activator, single point]",–
O=C(c1ccccc1)c1ccc(-n2ccnc2)c([N+](=O)[O-])c1,–,inactive: -3.8%
Cc1cccc2c(C(=O)N3CCCCC3)cc(-c3ccccc3)nc12,"inconclusive: 29.1 µM [activator, partial curve, poor fit]",–

Structure (SMILES),Potency,re-replication activation
CCCCN1C(=N)N([C@@H](C)CN2CCC[C@H]2CN2C(N)=NC[C@H]2CC(C)C)C[C@H]1[C@H](C)CC,–,inactive: -5.57%
CC(C)N1CCN(S(=O)(=O)c2ccccc2)c2ccccc21,"inconclusive: 29.1 µM [activator, single point]",–
Clc1cccc(-c2nc(NCCN3CCOCC3)c3ccccc3n2)c1,–,inactive: 1.14%
COc1ccc(-c2csc(Nc3ccc(O)cc3)n2)cc1,"inconclusive: 11.6 µM [activator, partial curve, poor fit]",–
Cn1nnc2cc(C(=O)Nc3ccc(Cl)cc3)ccc21,"inconclusive: 0.517 µM [activator, partial curve, poor fit]",–
CC(C)NC(=O)C1CCN(Cc2cnn(-c3ccccc3)c2-n2cccc2)CC1,–,inactive: 0.0933%
O=[N+]([O-])c1ccc(S(=O)(=O)N2CCN(Cc3c[nH]c4ccccc34)CC2)cc1,–,inactive: 3.24%
CC(C)c1nc2ccccc2n1CC(O)COC1CCCCC1 (stereo not drawn),–,inactive: -0.0064%
CCC(C)Sc1cccc(-c2nc3cc(C)ccn3c2NC2CCCCC2)c1 (stereo not drawn),"inconclusive: 20.6 µM [activator, partial curve, poor fit]",–
COc1cc(OC)cc(-c2cc3nc(C)c(CCC(=O)NCc4ccccc4)c(C)n3n2)c1,"inconclusive: 16.4 µM [activator, single point]",–
Cc1cc(C=O)c(C)n1-c1ccc(N2CCOCC2)c([N+](=O)[O-])c1,–,inactive: 1.1%
COc1ccc(S(=O)(=O)NCC(c2ccc(F)cc2)N2CCOCC2)cc1Br (stereo not drawn),–,inactive: 3.13%
CC1CCCN(CCOc2cccc(Oc3ccccc3)c2)C1 (stereo not drawn),"inconclusive: 13 µM [activator, partial curve, poor fit]",–
Cc1cc(C)cc(NC(=S)Nc2ccc(Cl)c(Cl)c2)c1,"inconclusive: 29.1 µM [activator, single point]",–
C/C(=N/NC(=O)c1ccncc1)c1ccc2c(c1)OCO2,"inconclusive: 20.6 µM [activator, partial curve, poor fit]",–
CN(C)CCCN(C(=O)c1ccc([N+](=O)[O-])s1)c1nc2cc3c(cc2s1)OCCO3,"inconclusive: 29.1 µM [activator, single point]",–
COc1ccc(CNS(=O)(=O)c2cc(CN3C(=O)c4cccnc4C3=O)ccc2OC)cc1,–,inactive: -2.41%
COc1ccc(NC(=O)O/N=C/c2ccc(Br)cc2)cc1,"inconclusive: 15.8 µM [activator, single point]",–
O=C1/C(=C/c2ccncc2)CCc2ccccc21,active: 20.6 µM,–
O=C(NC1CCOCC1)C1CCC(=O)N(CCc2ccc(Cl)cc2)C1 (stereo not drawn),"inconclusive: 4.11 µM [activator, partial curve, poor fit]",–
CC(c1ccccc1F)n1cc(C(=O)NCCc2ccco2)nn1 (stereo not drawn),"inconclusive: 23.1 µM [activator, single point]",–
CCN(c1ccccc1)S(=O)(=O)c1ccc(OC)c(NS(=O)(=O)c2cccs2)c1,"inconclusive: 5.8 µM [activator, single point]",–
